PubChem BioAssay AID1347426 (Functional Genomics Laboratory (NCATS/FGL), 2020)
Hit rate of the full screen: of about 31,000 sequences, about 1,400 (4.5%) were called active.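 How the source made its calls: active means median seed-adjusted z-score above 1 or below -1; inactive means the rest.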 The list shows a part of the results.

Assay: Novel Modifiers of Survival Motor Neuron (SMN) Protein: Gene Identification via Genome-wide siRNA Screen;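 further: luminescence tracks full-length SMN protein made from the SMN2 reporter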
Conditions: HEK293T SMN2-luciferase reporter, siRNA knockdown, 72 h; actives lie on both sides
Method in brief: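 Steps: spot 1 pmol siRNA, add Lipofectamine RNAiMax in serum-free DMEM, seed HEK293T SMN2–luciferase reporter cells; incubate 72 h at 37 °C; add ONE-Glo; normalize luminescence to control siRNA, log10, MAD. Candidates: |MAD| > 1.0.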

Sequence	median seed-adjusted z-score
GCAUUGCCUCUGUCGGUAATT against SLC13A1	inactive: 0.183
GCAUCAAGCAGGUUCACUATT against PLK3	inactive: -0.116
GUCUAUACUUGGAGUUAUATT against KCNJ1	inactive: 0.0148
GAAGCUACAUCGGCAGUAATT against CXADR	inactive: 0.872
GAAGGAGUUUGGAAACACATT against APOC1	inactive: 0
CGCUCACCACCAACCGUAUTT against ATP2B3	inactive: 0.0848
GGAUGACUGUGACUUCCAATT against CST7	inactive: 0.303
CUGGAUCUGUAUCACCUAUTT against ITSN2	inactive: 0.933
GGAUGUGAAGGGUACAUAUTT against LIG3	inactive: -0.0498
GGACAAACCUUCCUCCAGATT against ZNF70	inactive: -0.558
GAGUCUUGCUUCCAAUAAATT against RPP25	inactive: 0
CGUGUAACGUGGUUUGUGATT against PABPC3	inactive: -0.314
CCGACUAUCUCUAUCCGGATT against PLAU	inactive: 0.0765
GAAAGACCAUGAAUGUAGUTT against ZNF232	inactive: 0.39
CAAGCCCAUUUGACACUGATT against FTSJ3	inactive: 0.437
GAACUAUGGGUUACCAGGATT against CFI	inactive: -0.596
GAACUGACAAGCUUAGUAATT against SAP18	active: 2.14
AACUCGCAGUGGUUCAAUUTT against TXNDC8	inactive: -0.281
GGUCAACUAUCAUAGGAGATT against RARS	inactive: -0.268
CUACUUUCGAGACUACUUUTT against DGAT2	inactive: 0.195
ACACAGCUGUUGUACCUCATT against MAP4	active: 1.67
CCAUCUUGUAUGACUCAAATT against ELMO1	inactive: -0.00404
GCCGCUGAUUGGGAAGGUATT against GAA	inactive: 0.756

Sequence	median seed-adjusted z-score
GGAUAUGGUUGGAUUAGCATT against GAD2	inactive: 0.0588
CCAUAAUGGUGUUGCUUAUTT against BOLL	inactive: -0.072
GGUGUAAAAGUGAUUAUAATT against LCLAT1	inactive: 0
GGAAUACCAUAGUCCAGAUTT against MAP3K7IP3	inactive: 0.267
CGUUGUUUUUCGAUUGCAATT against ESD	inactive: -0.196
CACCCUGAAUGGAUUGAGATT against ELAVL2	inactive: -0.077
GGUCCUACUGGGAAAUGUATT against ARL9	inactive: 0.98
CUCACGAAAUUGACCGCUATT against HLA-DMA	inactive: -0.00543
CCUCAAAUCUUACGGAACATT against ZNF675	inactive: -0.343
GCAAGGUACUGCAACCACATT against RNASE12	inactive: -0.16
GCAUGGUAGCCGAAGAUUUTT against IGF1R	inactive: -0.358
GGACAACAGGUAUUCCGAUTT against KCNQ3	inactive: 0.313
GCCUUUCGAUGAAGAUUAUTT against CNTN4	inactive: -0.407
CGGCAGUAGCUGCAACCUATT against ATP6V1B1	inactive: 0.38
GUAUGAAGCUAUUGUAGAATT against MYCBP	inactive: -0.196
CCUCAAUUCUGAUUAGUGUTT against GRM1	inactive: 0.0376
GCAGACACCUGAACUCUCATT against FRMPD2	inactive: -0.329
GGAAGACAGAGAAUCGAAATT against SEMA5A	inactive: -0.443
GGACUAUUUUCAUCAACCATT against ATP8A1	inactive: 0
GAGUUAUGGUGCUAUAGGATT against PHEX	inactive: -0.0314
CACCAUGAAUAAUCAACUUTT against TOM1L1	inactive: -0.0722
GGAGAUCACUUUGUCUCCCTT against TPSG1	inactive: 0
GUAACUUGUUUAUUAGACATT against DNA2	inactive: 0.0284

Quoted from the results shown for reference:
Sequence	median seed-adjusted z-score
GGUCAACUAUCAUAGGAGATT against RARS	inactive: -0.268
CUACUUUCGAGACUACUUUTT against DGAT2	inactive: 0.195
ACACAGCUGUUGUACCUCATT against MAP4	active: 1.67
CCAUCUUGUAUGACUCAAATT against ELMO1	inactive: -0.00404
GCCGCUGAUUGGGAAGGUATT against GAA	inactive: 0.756
GGAUAUGGUUGGAUUAGCATT against GAD2	inactive: 0.0588
CCAUAAUGGUGUUGCUUAUTT against BOLL	inactive: -0.072
GGUGUAAAAGUGAUUAUAATT against LCLAT1	inactive: 0
GGAAUACCAUAGUCCAGAUTT against MAP3K7IP3	inactive: 0.267
CGUUGUUUUUCGAUUGCAATT against ESD	inactive: -0.196
CACCCUGAAUGGAUUGAGATT against ELAVL2	inactive: -0.077
GGUCCUACUGGGAAAUGUATT against ARL9	inactive: 0.98
CUCACGAAAUUGACCGCUATT against HLA-DMA	inactive: -0.00543
CCUCAAAUCUUACGGAACATT against ZNF675	inactive: -0.343
GCAAGGUACUGCAACCACATT against RNASE12	inactive: -0.16
GCAUGGUAGCCGAAGAUUUTT against IGF1R	inactive: -0.358
GGACAACAGGUAUUCCGAUTT against KCNQ3	inactive: 0.313
GCCUUUCGAUGAAGAUUAUTT against CNTN4	inactive: -0.407

Next entries.

Sequence	median seed-adjusted z-score
AUACAGAGGGUUUUGGAAATT against DPF3	inactive: 0.242
GCCUUUCCGAUACGUCCUATT against VARS	inactive: 0.237
CAUUUGUGCUGAUCGAAGATT against CANX	inactive: 0.471
GCCUUACCAAAGUAGUUGATT against TRIO	inactive: 0.42
CUACAGCCUAUAUAUGAAATT against FCRL1	inactive: -0.873
GGUUAUACUCGGGCAGAGATT against NDUFS5	active: -1.35
CAAGAUCUCAAGAAAUUCATT against CDK2	inactive: -0.347
GGCAUGAAGUGAAGGAUGATT against ZNF134	inactive: -0.0978
GAAAUUAAGCUGCAGCUUUTT against CST8	inactive: -0.0126
AGACGGUGACUUACAAAAATT against ARF6	inactive: -0.805
GUAUGGAAAUGGGUUUAUATT against PPARA	inactive: 0.113
GAAUAUUUCCUUAUGGUUUTT against UQCRH	inactive: 0.458
GGGUGUACUGCACACGUUATT against EN1	inactive: 0.761
GACAUAUCCAGUUCAAUCATT against STAM2	inactive: -0.24
GGAGGUUCCAGAUCGUGGATT against ZNF205	inactive: -0.468
AACAUUCUCCCGAGACUUATT against CDC14C	inactive: 0.437
GGUGUUACCUGAACACUGUTT against LTBP2	inactive: 0.0496
CUAUGACUGGAUUAGCGUATT against BEST2	inactive: 0.415
GAGUUUAAGUUGUCUACGATT against ARHGEF6	inactive: -0.0593
CCGUGCUCCUCAAUCCUAUTT against NDST1	inactive: -0.0763
GAAGCUUGCCUAUGCCGUUTT against DDX19A	inactive: 0.183
GAAGGAUCACCAGCACAUATT against DEAF1	inactive: 0.0416
GCUGUUUGCUGGAUACAAUTT against GNB5	inactive: -0.535
